Data: patent publication US20220226473A1, “Nucleic acid nanocarrier drug and preparation method thereof, pharmaceutical composition and application thereof” (BAI YAO ZHI DA (BEIJING) NANOBIO TECHNOLOGY CO., LTD., priority 2018, published 2022)
Substitutions are numbered along the chain they refer to. Some entries share one result that the patent states for a list of compounds. {Biotin} = biotin (Bio) of the a-strand; {Bio} = biotin of the strand

B1: D-8: extension fragment deformation+core short-sequence DNA nanoparticle, SEQ ID NO: 141-143, a-strand 3′ biotin (nucleic acid)
chain 1: GCGGCGAGCGGCGAGGAGCGTTGGGGCCGGAGGCCGG
chain 2: CCGGCCTCCGGCCCCTTCGGGGCCAGCCGCC
chain 3: GGCGGCAGGCCCCCATAGCCCTCGCCGCTCGCCGC
modifications: chain 1: DNA, 3' {Biotin}, backbone and methylation of C not given here; chain 2: DNA, backbone and methylation of C not given here; chain 3: DNA, backbone and methylation of C not given here; three-strand DNA nanoparticle carrier
B2: D-9: extension fragment deformation+core short-sequence DNA nanoparticle, SEQ ID NO: 144-146, 3′ biotin (nucleic acid)
chain 1: B1 chain 1 with G16C, G23C
chain 2: B1 chain 2 with C15G, G20C, G21C
chain 3: B1 chain 3 with C11G, C12G, C20G
modifications: chain 1: DNA, 3' {Bio}, backbone and methylation of C not given here; chain 2: DNA, backbone and methylation of C not given here; chain 3: DNA, backbone and methylation of C not given here; three-strand DNA nanoparticle carrier
B3: D-10: extension fragment deformation+core short-sequence DNA nanoparticle, SEQ ID NO: 147-149, 3′ biotin (nucleic acid)
chain 1: B1 chain 1
chain 2: B1 chain 2 with G20C, G21C
chain 3: B1 chain 3 with C11G, C12G
modifications: chain 1: DNA, 3' {Bio}, backbone not given here; chain 2: DNA, backbone not given here; chain 3: DNA, backbone not given here; three-strand DNA nanoparticle carrier
B4: D-11: extension fragment deformation+core short-sequence DNA nanoparticle, SEQ ID NO: 150-152, 3′ biotin (nucleic acid)
chain 1: B1 chain 1 with G16C, G23C
chain 2: B1 chain 2 with C15G, G21C
chain 3: B1 chain 3 with C11G, C20G
modifications: chain 1: DNA, 3' {Bio}, backbone not given here; chain 2: DNA, backbone not given here; chain 3: DNA, backbone not given here; three-strand DNA nanoparticle carrier
B5: D-12: extension fragment deformation+core short-sequence DNA nanoparticle, SEQ ID NO: 153-155, 3′ biotin (nucleic acid)
chain 1: B1 chain 1 with G16C, G23C
chain 2: B1 chain 2 with C15G, G21C, G22C
chain 3: B1 chain 3 with C10G, C11G, C20G
modifications: chain 1: DNA, 3' {Biotin}, backbone not given here; chain 2: DNA, backbone not given here; chain 3: DNA, backbone not given here; three-strand DNA nanoparticle carrier
B6: D-13: extension fragment deformation+core short-sequence DNA nanoparticle, SEQ ID NO: 156-158, 3′ biotin (nucleic acid)
chain 1: B1 chain 1 with G15C, G24C
chain 2: B1 chain 2 with C14G, G20C, G21C
chain 3: B1 chain 3 with C11G, C12G, C21G
modifications: chain 1: DNA, 3' {Bio}, backbone not given here; chain 2: DNA, backbone not given here; chain 3: DNA, backbone not given here; three-strand DNA nanoparticle carrier
B7: D-14: extension fragment deformation+core short-sequence DNA nanoparticle, SEQ ID NO: 159-161, 3′ biotin (nucleic acid)
chain 1: B1 chain 1 with G15C, G24C
chain 2: B1 chain 2 with C14G, G21C
chain 3: B1 chain 3 with C11G, C21G
modifications: chain 1: DNA, 3' {Biotin}, backbone not given here; chain 2: DNA, backbone not given here; chain 3: DNA, backbone not given here; three-strand DNA nanoparticle carrier

Experiments:
[1] = tested on: HepG2 cells; assay: Cell binding of DNA nanoparticles and carrier drugs by FACS; format: cell-based; settings: incubated at 37 DEG C. for 2 h; span over carrier drug and blank carrier
Method: 1. A cell state is adjusted to a logarithmic growth phase, the medium is changed into a medium without biotin and folic acid, and it is incubated overnight in an incubator at 37 DEG C.
2. After incubation, cell suspension is trypsinized and collected, and centrifuged at 1000 rpm for 5 min, after the concentration is adjusted, a 2×10^6-5×10^6 cell/EP tube is taken and washed twice with 1 mL/tube of 1% BSA-PBS, and cells at the bottom of the tube is observed to prevent them from being absorbed.
3. A substance to be tested is dissolved, and the substance to be tested is diluted to a use concentration.
4. Cell supernatant is absorbed, 100 μL of a corresponding sample is added to each tube in order, light is avoided, and it is incubated at 37 DEG C. for 2 h.
5. It is washed twice with 1% BSA-PBS; and centrifuged at 1000 rpm for 5 min.
6. Finally, it is precipitated with 300 μL of PBS cell resuspension, and flow Cytometric on-machine detection (the blank carrier used in the present embodiment is labeled by Quasar670, and the doxorubicin in the carrier drug has its own fluorescence, so the detection may be performed through FL4-APC and FL2-PE respectively) is performed.

[2] = tested on: HepG2 cells; assay: CCK8 toxicity of DNA nanoparticles and carrier drugs; format: cell-based; settings: CCK8, 72 hours; read-out: IC50 acting on the HepG2 cells
Method: A CCK8 method is used to detect the toxicity of DNA nanoparticles and carrier drugs to HepG2.
2. A sample to be tested is diluted according to the following table and added: the original culture medium is removed and 100 μL of a culture medium of the sample to be tested with the different concentration is added, and there are 3 replicate wells in each group.
In the present embodiment, the loaded drug and the blank carrier are firstly prepared into 100 μM of stock solution using the PBS, and then diluted with the complete culture medium (biotin-free DMEM). The original drug doxorubicin is firstly prepared into 100 NM of stock solution by using the DMSO, and then diluted with the complete culture medium (biotin-free DMEM). The DMSO is directly diluted with the complete medium (biotin-free DMEM).
3. After the sample to be tested is added, the 96-well plate is placed in an incubator under 37 DEG C. and 5% CO2 and incubated for 72 hours.
4. A kit is taken out and melted at a room temperature, 10 μL of CCK-8 solution is added to each wall, or the CCK8 solution is nixed with the culture medium at a ratio of 1:9, and then added to the well in an amount of 100 μL/well.
5. It is continuously incubated in the cell incubator for 4 hours, and a length of time depends on experimental conditions such as a cell type and a el density.
6. A microplate reader is used to measure an absorbance at 450 nm.
7. Calculation: cell viability (%)=(OD experimental group−OD blank group)[…]/(OD control group−OD blank group), IC50 is calculated by GraphPad Prism 5.0.

Molecule	binding rate to HepG2 cells [1]	IC50 [2] [nM]
B1	93.1%-98.4%	> 1000
B2	88.6%-98.1%	> 1000
B3	89.4%-98.3%	> 1000
B4	89.3%-97.8%	> 1000
B5	94.6%-97.1%	> 1000
B6	89.6%-98.2%	> 1000
B7	90.3%-98.3%	> 1000
